According to US5521159A (Italfarmaco S.p.A., priority 1992, dated 1996):
HELM strings list residues between dots; [ac] is acetyl, [am] amide, other brackets name non-standard units.

Assay: general procedure: solution-phase peptide synthesis; DCC/HOSu; DCCI/HOBT

Substance	final HPLC purity (coupling step, 220 nm)	step yield (late stage modification step) [%]	final HPLC purity (late stage modification step, HPLC (220-254 nm)) [%+isomero A]
[mLys(Z)-Gly-NH2]-Pro-Arg-OH isomer B	93%+4% of isomer A	–	–
PEPTIDE1{[gGly-(R,S)mLys].P.R}$$$$V2.0	–	32	96
[mLys(Z)-Gly-NH2]-Pro-Arg-OH isomer A	96%	–	–
